Results: article PMC12195231, “Afil, a Lectin from Aplysina fistularis, Exhibits Antibiofilm and Synergistic Antibacterial Activity Against Resistant Bacteria” (Microorganisms, 2025)

Tested on: T1, AfiL
T1 construct: native, purified from sponge tissue (ammonium sulfate, Sepharose 4B, lactose elution); 70 kDa disulfide-linked dimer, ~30 kDa subunits; internal stretch […]
Assay: hemagglutination inhibition, rabbit erythrocytes
Assay type: cell-based, Aplysina fistularis
Conditions: TBS
Excerpt: hemagglutination inhibition, rabbit erythrocytes on AfiL

Row | SMILES | Minimum Inhibitory Concentration (MIC) | Minimum Inhibitory Concentration (MIC) (anomer of this row not stated (methods list α-D-lactose and β-D-lactose))
1 | O=[N+]([O-])c1ccc(O[C@@H]2O[C@H](CO)[C@H](O)[C@H](O)[C@H]2O)cc1 [4-nitrophenyl-β-D-galactoside] | 12.5 mM | 
2 | OC[C@H]1O[C@@H](O[C@@H]2[C@@H](CO)OC(O)(CO)[C@H]2O)[C@H](O)[C@@H](O)[C@H]1O (stereo partly drawn) [D-lactulose] | 25 mM | 
3 | OC[C@H]1O[C@@H](O[C@H]2[C@H](O)[C@@H](O)[C@@H](O)O[C@@H]2CO)[C@H](O)[C@@H](O)[C@H]1O [α-D-lactose] | 12.5 mM | 
4 | O=[N+]([O-])c1ccc(O[C@H]2O[C@H](CO)[C@H](O)[C@H](O)[C@H]2O)cc1 [4-nitrophenyl-α-D-galactoside] | 12.5 mM | 
5 | OC[C@H]1O[C@@H](O[C@H]2[C@H](O)[C@@H](O)C(O)O[C@@H]2CO)[C@H](O)[C@@H](O)[C@H]1O (stereo partly drawn) [D-lactose] |  | 12.5 mM
